Data taken from patent US20070259817A1.
Results are given in words; binding and its absence hold for the method and conditions named. Some results given as binding are weak or reduced against the parent protein; the word gives no strength.

By UniProt entry, the sequences of proteins in these tests, tags left out. Where a name states a change or a piece, a line headed by the entry shows the natural chain unless it says otherwise.
UniProt P02462: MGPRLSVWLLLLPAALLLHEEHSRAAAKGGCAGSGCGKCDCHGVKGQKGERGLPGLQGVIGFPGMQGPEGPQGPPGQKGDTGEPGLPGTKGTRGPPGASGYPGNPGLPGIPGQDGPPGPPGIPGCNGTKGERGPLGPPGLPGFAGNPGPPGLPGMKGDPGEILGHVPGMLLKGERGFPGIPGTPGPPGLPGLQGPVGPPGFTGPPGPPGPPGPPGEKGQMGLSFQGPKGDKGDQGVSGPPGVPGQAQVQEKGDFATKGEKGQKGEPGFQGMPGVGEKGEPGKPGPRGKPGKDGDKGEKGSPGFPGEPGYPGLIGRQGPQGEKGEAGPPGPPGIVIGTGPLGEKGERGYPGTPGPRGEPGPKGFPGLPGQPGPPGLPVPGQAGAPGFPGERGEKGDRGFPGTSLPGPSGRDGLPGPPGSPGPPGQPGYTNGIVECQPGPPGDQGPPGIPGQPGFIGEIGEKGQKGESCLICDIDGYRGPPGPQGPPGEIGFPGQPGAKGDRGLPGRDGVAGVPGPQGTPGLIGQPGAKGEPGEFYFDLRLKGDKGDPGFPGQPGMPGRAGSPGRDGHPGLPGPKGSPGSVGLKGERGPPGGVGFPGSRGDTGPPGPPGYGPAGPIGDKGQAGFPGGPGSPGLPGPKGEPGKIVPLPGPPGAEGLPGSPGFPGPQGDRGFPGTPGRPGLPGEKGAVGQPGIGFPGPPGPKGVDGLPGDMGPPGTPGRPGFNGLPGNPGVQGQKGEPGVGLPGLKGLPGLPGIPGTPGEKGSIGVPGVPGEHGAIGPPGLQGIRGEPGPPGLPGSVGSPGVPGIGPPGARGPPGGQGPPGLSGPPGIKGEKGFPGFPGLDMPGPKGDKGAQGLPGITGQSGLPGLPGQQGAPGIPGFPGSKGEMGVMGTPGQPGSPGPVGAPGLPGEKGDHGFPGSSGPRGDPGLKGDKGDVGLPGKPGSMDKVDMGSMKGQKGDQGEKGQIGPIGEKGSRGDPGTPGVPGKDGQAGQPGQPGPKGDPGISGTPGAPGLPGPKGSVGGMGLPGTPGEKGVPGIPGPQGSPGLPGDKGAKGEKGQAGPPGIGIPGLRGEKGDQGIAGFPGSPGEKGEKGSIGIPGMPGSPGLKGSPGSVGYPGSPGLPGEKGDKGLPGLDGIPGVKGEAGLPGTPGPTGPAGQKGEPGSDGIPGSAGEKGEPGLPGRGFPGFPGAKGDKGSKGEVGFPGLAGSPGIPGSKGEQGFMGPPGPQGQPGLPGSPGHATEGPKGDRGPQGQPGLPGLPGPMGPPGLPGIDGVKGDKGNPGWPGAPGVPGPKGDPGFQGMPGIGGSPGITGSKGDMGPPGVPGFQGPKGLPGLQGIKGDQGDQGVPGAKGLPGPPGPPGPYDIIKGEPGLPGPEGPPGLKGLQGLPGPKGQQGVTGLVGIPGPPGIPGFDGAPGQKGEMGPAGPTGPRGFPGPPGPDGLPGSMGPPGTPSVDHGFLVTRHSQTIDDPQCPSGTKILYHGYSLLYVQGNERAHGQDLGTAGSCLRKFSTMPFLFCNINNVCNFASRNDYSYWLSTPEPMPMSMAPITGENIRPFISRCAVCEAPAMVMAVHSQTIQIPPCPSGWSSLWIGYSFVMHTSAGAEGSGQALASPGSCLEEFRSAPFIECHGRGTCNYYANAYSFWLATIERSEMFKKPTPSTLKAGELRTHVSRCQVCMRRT
UniProt P08572: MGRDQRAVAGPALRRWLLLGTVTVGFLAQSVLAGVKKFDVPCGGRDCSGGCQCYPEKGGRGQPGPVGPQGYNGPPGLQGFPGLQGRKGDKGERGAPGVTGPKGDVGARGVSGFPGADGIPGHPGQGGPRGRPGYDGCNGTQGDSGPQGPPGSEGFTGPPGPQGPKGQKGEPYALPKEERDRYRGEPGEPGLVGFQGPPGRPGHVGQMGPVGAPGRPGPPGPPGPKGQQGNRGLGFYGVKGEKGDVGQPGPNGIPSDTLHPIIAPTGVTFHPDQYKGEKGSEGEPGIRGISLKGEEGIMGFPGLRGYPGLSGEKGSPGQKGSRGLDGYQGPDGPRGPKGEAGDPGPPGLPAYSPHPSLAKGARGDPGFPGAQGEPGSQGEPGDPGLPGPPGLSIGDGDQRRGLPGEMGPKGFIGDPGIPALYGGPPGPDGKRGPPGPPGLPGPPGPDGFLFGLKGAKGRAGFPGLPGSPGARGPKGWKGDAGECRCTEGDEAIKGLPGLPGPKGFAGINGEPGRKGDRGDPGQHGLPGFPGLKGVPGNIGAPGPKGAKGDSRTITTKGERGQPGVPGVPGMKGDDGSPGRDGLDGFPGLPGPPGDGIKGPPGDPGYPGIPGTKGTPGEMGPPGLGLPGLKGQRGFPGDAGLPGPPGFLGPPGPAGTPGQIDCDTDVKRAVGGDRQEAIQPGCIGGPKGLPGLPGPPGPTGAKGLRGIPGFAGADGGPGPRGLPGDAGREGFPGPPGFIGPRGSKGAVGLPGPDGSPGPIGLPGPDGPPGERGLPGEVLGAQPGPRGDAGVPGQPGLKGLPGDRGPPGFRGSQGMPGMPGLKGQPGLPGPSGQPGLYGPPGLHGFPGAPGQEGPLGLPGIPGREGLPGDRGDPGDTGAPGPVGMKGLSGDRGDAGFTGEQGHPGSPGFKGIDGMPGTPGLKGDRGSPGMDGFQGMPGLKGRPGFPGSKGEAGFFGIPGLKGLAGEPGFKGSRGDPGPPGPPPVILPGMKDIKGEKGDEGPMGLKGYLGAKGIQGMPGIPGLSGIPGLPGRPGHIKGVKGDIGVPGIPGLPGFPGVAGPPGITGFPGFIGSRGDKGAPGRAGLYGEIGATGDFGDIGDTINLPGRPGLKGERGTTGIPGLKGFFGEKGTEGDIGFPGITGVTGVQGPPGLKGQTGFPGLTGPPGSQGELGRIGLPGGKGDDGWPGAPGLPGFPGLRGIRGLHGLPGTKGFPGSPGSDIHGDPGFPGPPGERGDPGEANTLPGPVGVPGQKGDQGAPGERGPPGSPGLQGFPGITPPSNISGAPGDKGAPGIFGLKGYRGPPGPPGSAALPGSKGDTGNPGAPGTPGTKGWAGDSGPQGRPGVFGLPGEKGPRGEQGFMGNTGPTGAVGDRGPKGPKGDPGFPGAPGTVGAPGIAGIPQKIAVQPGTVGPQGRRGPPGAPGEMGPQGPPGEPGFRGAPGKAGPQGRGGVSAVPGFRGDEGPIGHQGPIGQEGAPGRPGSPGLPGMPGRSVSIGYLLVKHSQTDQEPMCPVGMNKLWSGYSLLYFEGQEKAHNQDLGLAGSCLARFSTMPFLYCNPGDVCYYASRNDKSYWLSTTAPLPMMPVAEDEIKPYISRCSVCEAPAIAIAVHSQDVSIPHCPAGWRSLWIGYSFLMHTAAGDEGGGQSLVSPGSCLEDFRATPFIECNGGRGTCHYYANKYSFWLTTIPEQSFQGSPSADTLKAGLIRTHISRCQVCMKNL

How the values were obtained:
[1] = target: T1, denatured collagen type-IV (human) (UniProt P02462+P08572); assay: gamma counting of wells coated with denatured collagen type-IV (10 ug/ml); FIG. 19
[2] = target: T1, denatured collagen type-IV (human); assay: gamma counting of wells coated with denatured collagen type-IV (10 ug/ml); FIG. 19 legend
[3] = target: T1, denatured collagen type-IV (human); assay: solid phase ELISA, HRP-labeled CLK-peptide on coated plates; FIG. 15

binding [1] | binding [2] | binding [3] | Binder
binds | binds | – | CLKQNGGNFSLG (99Tc label (site and chelation not stated)) [99Tc-CLK-Peptide]
– | – | binds | CLKQNGGNFSLG (HRP label (site of attachment not stated)) [HRP-labeled CLK-Peptide]
